No constants are given. Whether binding was seen depends on the method and setting. For some assays here: In cells and extracts the contact can be indirect. Some entries that bind do so weakly or less than the wild type. Where a sequence is shown, tags or fusion partners need not be part of it. One block for each binder: values may come before it.
Columns and labels:
[1] = target: T1, ABF2 (abscisic acid (ABA)-responsive element (ABRE)-binding transcription factor), pGBKT7-DEST (BD) fusion (Arabidopsis thaliana (Col-0 cDNA)) (UniProt Q9M7Q4); experiment: two-hybrid; yeast strain AH109 co-transformed with AD (DELLA) and BD (ABF2 or its fragments) constructs; growth on SD medium lacking Trp, Leu, His and Ade, 30 °C, 2-5 days; three dilutions spotted
T1 sequence: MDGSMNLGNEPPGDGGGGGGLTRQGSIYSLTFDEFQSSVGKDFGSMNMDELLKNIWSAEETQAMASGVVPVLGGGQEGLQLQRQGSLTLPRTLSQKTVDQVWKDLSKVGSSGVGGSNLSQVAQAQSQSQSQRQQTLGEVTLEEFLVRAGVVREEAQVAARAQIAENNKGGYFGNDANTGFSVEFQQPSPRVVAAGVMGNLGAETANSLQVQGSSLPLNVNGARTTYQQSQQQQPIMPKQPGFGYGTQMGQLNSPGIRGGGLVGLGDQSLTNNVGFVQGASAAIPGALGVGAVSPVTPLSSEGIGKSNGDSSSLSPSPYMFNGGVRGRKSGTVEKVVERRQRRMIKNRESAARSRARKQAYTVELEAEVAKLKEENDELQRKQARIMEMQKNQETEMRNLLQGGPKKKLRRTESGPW

[2] = target: T2, ABF2-YFP^C (pEarleyGate202-YC) (Arabidopsis thaliana (Col-0 cDNA)) (UniProt Q9M7Q4); experiment: split reporter; BiFC: YFP^N and YFP^C fusions co-infiltrated into Nicotiana benthamiana leaves by Agrobacterium GV3101; YFP imaged by confocal microscopy 48 h after infiltration
T2 sequence: T1 sequence

binding [1]: binds
B1: RGL1 (RGA-LIKE1), pGADT7-DEST (AD) fusion (protein, UniProt Q9C8Y3 1-511)
chain: MKREHNHRESSAGEGGSSSMTTVIKEEAAGVDELLVVLGYKVRSSDMADVAHKLEQLEMVLGDGISNLSDETVHYNPSDLSGWVESMLSDLDPTRIQEKPDSEYDLRAIPGSAVYPRDEHVTRRSKRTRIESELSSTRSVVVLDSQETGVRLVHALLACAEAVQQNNLKLADALVKHVGLLASSQAGAMRKVATYFAEGLARRIYRIYPRDDVALSSFSDTLQIHFYESCPYLKFAHFTANQAILEVFATAEKVHVIDLGLNHGLQWPALIQALALRPNGPPDFRLTGIGYSLTDIQEVGWKLGQLASTIGVNFEFKSIALNNLSDLKPEMLDIRPGLESVAVNSVFELHRLLAHPGSIDKFLSTIKSIRPDIMTVVEQEANHNGTVFLDRFTESLHYYSSLFDSLEGPPSQDRVMSELFLGRQILNLVACEGEDRVERHETLNQWRNRFGLGGFKPVSIGSNAYKQASMLLALYAGADGYNVEENEGCLLLGWQTRPLIATSAWRINRVE

binding [2]: binds
B2: RGL1, BiFC fusion (YFP fragment) (protein, UniProt Q9C8Y3 1-511)
chain: B1 chain
